# Results: US20110059482A1, “Sampling Kit” (priority 2008, published 2011)
# Some results were stated once for a whole list of compounds, not compound by compound.
# Test: Storage stability / shelf life of antibiotics, tablet and Herogel components
# Format: physicochemical
# Details: stored at about 8° C. (refrigerator)
# Description: Background: Herogel is a selective growth medium comprising aztreonam and colistin to inhibit the growth of Enterobacteriaceae. Cefoxitin is added to the medium in order to inhibit the growth of MSSA (Methicillin Sensitive Staphylococcus Aureus). Cefoxitin has a short shelf life if it is added to the medium upon manufacturing of the medium and together with other antibiotics. Tests performed at Karolinska University Hospital Laboratory have shown that the activity of cefoxitin in liquid form is reduced after 14 days at about 8° C. (i.e. in a refrigerator) and that aztreonam and colistin if they are added to the growth medium are active for at least 4 months if stored at a temperature of about 8° C. (i.e. in a refrigerator). In order to prolong the shelf life of the Herogel, cefoxitin is incorporated in the tablet in Batch 1. The hypothesis is that the shelf life of the herogel will be prolonged if the tablet is added immediately after the sampling. The shelf life of the tablet is estimated to about 12 months in room temperature. The other components of the Herogel medium have a documented shelf life of at least 6 months upon storage in a refrigerator.
structure (smiles),measurement,value
C[C@H]1[C@H](NC(=O)/C(=N\OC(C)(C)C(=O)O)c2csc(N)n2)C(=O)N1S(=O)(=O)O [aztreonam],time active when added to the growth medium,at least 4 months
